These are yes or no findings as the source states them, for the method shown. In cells and extracts the contact can be indirect. Some entries that bind do so weakly or less than the wild type. For part of these data: Sequences can lack the tags named with a protein.
What was measured:
[1] = target: T1, human CLCF1 tagged with the protein C epitope (CLCF1_(ProtC)) (human) (UniProt Q9UBD9); experiment: co-IP; lysates of co-transfected HEK-293T cells (50 mM Tris-HCl pH 7.5, 150 mM NaCl, 1 mM CaCl2, 1% Nonidet P-40, 0.5% sodium deoxycholate); CLCF1_(ProtC) precipitated with anti-ProtC affinity matrix, eluted with EDTA, western blot
T1 sequence: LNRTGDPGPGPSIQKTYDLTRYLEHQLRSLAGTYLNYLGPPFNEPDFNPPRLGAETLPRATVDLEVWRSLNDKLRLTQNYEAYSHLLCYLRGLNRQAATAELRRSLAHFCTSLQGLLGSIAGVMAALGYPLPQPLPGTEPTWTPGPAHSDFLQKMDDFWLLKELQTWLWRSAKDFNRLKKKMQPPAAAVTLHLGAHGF

By UniProt entry, the sequences of proteins in these tests, tags left out. Where a name states a change or a piece, a line headed by the entry shows the natural chain unless it says otherwise. Residues count along the entry.
UniProt P29460, residues 23-328: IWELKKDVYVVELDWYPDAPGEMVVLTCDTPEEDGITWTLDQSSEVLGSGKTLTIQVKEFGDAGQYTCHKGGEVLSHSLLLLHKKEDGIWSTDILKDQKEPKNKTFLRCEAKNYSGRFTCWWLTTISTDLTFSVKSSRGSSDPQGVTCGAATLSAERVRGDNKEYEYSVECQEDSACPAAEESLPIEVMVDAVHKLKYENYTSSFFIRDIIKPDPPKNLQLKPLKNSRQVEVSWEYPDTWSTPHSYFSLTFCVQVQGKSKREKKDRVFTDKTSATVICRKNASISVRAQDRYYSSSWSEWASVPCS

[2] = target: T2, human CLCF1 stably expressed in Ba/F3 cells (human) (UniProt Q9UBD9); experiment: proximity ligation; Duolink flowPLA in Ba/F3 cells treated with brefeldin A, fixed and permeabilized; anti-CLCF1 and anti-p40 primary antibodies; read by flow cytometry
T2 sequence: T1 sequence

[3] = target: T1, human CLCF1 tagged with the protein C epitope (CLCF1_(ProtC)) (human); experiment: co-IP; supernatants of HEK-293T cells transfected separately (CLCF1_(ProtC) with CRLF1_(FLAG); p40) mixed in equal parts, 37 °C for 24 h, then anti-ProtC affinity matrix
[4] = target: T3, human CRLF1 tagged with the FLAG epitope (CRLF1_(FLAG)) (human) (UniProt O75462); experiment: co-IP; sequential immunoprecipitation from supernatants of HEK-293T cells co-expressing CLCF1_(ProtC), CRLF1_(FLAG) and p40: anti-ProtC affinity matrix, then anti-FLAG affinity gel on the eluted fractions
T3 sequence: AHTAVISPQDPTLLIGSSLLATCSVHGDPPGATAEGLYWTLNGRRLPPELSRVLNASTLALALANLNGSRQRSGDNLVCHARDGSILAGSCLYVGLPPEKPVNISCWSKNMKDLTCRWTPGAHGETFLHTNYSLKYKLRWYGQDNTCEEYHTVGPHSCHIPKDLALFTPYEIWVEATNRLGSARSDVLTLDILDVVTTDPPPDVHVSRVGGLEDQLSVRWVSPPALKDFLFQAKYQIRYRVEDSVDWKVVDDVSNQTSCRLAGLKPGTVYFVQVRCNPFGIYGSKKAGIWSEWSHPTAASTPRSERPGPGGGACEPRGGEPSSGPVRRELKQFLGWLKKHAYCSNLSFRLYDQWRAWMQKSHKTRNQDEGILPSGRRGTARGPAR

[5] = target: T1, human CLCF1 tagged with the protein C epitope (CLCF1_(ProtC)) (human); experiment: as above
[6] = target: T1, human CLCF1 tagged with the protein C epitope (CLCF1_(ProtC)) (human); experiment: co-IP; supernatants of co-transfected HEK-293T cells with 1 mM CaCl2 and 1% Nonidet P40; CLCF1_(ProtC) precipitated with anti-ProtC affinity matrix, western blot
[7] = target: T3, human CRLF1 tagged with the FLAG epitope (CRLF1_(FLAG)) (human); experiment: co-IP; supernatants of co-transfected HEK-293T cells with 1% Triton X-100; CRLF1_(FLAG) precipitated with anti-FLAG affinity gel, western blot; also without CLCF1 cDNA
[8] = target: T4, CLCF1_(ProtC) expressed from the bicistronic p40_(FLAG)-T2A-CLCF1_(ProtC) cDNA in Ba/F3 cells (human) (UniProt Q9UBD9); experiment: proximity ligation; Duolink flowPLA in Ba/F3 cells treated with brefeldin A, fixed and permeabilized; anti-CLCF1 and anti-p40 primary antibodies; read by flow cytometry
T4 sequence: T1 sequence

human p40 tagged with the FLAG epitope (p40_(FLAG)) (from UniProt P29460 23-328)
binding [1]: binds

human p40 transduced into Ba/F3 cells that stably expressed CLCF1 (from UniProt P29460 23-328)
binding [2]: binds

human p40 untagged (p40), the β subunit of IL12/IL23 (from UniProt P29460 23-328)
binding [3]: binds | binding [1]: binds | binding [4]: binds | binding [5]: binds | binding [6]: binds | binding [7]: binds

p40_(FLAG) expressed from the bicistronic p40_(FLAG)-T2A-CLCF1_(ProtC) cDNA in Ba/F3 cells (from UniProt P29460 23-328)
binding [8]: binds

— article PMC12485051
